Laboratory results as given in the supplement of paper PMC10849652.
The other results are listed elsewhere or left out.

Chains of the proteins cited; added tags and fusions are not shown. Lines headed by an entry give the natural chain unless they say otherwise; changes in a name come on top.
UniProt O95139, whole entry, looked up: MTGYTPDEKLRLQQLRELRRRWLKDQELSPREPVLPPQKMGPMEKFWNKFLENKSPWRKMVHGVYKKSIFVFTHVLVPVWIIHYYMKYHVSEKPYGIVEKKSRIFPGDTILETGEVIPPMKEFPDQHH
UniProt Q6ZNB6: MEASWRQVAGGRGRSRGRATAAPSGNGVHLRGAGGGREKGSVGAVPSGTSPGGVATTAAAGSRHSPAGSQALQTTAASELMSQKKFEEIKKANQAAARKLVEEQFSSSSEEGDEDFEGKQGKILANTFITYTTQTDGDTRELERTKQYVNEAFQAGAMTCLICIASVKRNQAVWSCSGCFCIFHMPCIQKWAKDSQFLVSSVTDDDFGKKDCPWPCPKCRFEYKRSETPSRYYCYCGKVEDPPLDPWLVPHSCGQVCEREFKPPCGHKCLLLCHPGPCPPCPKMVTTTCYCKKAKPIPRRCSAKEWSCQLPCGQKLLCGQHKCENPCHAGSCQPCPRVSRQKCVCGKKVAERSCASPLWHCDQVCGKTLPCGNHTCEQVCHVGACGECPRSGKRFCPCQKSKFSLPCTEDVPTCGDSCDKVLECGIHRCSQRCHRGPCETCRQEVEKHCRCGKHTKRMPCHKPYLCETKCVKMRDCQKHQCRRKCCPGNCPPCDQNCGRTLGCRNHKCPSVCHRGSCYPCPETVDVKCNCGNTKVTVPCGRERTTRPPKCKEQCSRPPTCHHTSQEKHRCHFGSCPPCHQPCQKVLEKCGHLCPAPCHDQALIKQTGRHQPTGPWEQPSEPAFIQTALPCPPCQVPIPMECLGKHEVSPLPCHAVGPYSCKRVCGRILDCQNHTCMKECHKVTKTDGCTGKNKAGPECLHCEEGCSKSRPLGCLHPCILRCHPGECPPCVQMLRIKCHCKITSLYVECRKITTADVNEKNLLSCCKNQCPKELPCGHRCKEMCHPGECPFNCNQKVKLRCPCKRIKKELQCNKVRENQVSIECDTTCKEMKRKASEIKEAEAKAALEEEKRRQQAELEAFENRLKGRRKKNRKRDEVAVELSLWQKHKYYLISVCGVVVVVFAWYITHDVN
UniProt Q9P0J0, whole entry, looked up: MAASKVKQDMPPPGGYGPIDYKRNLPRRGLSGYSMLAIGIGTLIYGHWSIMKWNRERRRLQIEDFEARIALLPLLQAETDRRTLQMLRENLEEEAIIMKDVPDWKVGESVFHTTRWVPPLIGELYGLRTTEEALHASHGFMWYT
UniProt Q9Y221: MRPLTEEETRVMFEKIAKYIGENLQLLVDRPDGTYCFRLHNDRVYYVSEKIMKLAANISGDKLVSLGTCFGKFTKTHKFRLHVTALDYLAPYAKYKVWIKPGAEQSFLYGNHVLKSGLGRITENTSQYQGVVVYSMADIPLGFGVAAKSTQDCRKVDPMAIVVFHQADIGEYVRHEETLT
UniProt Q86Y39, whole entry, looked up: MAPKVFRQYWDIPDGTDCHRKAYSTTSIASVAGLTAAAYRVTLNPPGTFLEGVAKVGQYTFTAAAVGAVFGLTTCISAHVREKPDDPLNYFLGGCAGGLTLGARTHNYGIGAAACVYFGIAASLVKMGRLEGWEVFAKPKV
UniProt P56556, whole entry, looked up: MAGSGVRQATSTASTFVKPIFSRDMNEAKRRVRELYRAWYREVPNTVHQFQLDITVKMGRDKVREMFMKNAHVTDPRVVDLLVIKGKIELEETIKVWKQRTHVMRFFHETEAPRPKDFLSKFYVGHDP
UniProt P46934: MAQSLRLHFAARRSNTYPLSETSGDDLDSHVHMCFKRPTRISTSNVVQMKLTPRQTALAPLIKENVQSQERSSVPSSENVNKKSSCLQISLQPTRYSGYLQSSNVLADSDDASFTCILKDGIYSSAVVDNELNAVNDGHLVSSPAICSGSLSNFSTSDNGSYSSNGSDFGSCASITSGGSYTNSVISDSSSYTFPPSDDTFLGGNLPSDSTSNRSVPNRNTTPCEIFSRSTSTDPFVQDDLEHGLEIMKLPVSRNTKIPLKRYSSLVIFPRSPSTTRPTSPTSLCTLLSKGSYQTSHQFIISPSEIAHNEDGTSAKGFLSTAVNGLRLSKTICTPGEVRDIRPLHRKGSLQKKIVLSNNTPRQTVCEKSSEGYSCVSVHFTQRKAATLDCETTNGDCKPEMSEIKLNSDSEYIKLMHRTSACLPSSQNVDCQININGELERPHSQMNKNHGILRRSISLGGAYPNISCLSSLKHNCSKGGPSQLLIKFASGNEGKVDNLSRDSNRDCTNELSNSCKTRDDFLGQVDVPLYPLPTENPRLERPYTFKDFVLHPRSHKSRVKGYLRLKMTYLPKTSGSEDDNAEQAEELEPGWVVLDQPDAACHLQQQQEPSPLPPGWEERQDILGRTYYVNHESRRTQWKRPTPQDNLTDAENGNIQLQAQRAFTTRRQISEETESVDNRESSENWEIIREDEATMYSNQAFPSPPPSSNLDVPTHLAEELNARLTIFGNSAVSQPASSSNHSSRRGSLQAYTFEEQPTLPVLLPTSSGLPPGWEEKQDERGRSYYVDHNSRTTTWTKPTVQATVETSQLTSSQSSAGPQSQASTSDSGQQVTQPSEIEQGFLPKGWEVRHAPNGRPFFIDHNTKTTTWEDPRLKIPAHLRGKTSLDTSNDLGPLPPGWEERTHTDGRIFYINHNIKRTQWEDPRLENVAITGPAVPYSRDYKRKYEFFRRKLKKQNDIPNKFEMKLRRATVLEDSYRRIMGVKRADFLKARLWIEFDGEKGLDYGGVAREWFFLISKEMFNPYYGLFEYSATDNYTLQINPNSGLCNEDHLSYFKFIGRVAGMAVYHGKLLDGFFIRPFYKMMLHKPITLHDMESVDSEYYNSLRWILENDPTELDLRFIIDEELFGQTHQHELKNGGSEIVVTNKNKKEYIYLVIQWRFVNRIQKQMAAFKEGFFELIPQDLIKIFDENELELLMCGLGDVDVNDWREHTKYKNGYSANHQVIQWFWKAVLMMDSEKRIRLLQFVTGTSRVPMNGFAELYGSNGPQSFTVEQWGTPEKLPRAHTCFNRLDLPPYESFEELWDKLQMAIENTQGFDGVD
UniProt Q9BYT8, whole entry, looked up: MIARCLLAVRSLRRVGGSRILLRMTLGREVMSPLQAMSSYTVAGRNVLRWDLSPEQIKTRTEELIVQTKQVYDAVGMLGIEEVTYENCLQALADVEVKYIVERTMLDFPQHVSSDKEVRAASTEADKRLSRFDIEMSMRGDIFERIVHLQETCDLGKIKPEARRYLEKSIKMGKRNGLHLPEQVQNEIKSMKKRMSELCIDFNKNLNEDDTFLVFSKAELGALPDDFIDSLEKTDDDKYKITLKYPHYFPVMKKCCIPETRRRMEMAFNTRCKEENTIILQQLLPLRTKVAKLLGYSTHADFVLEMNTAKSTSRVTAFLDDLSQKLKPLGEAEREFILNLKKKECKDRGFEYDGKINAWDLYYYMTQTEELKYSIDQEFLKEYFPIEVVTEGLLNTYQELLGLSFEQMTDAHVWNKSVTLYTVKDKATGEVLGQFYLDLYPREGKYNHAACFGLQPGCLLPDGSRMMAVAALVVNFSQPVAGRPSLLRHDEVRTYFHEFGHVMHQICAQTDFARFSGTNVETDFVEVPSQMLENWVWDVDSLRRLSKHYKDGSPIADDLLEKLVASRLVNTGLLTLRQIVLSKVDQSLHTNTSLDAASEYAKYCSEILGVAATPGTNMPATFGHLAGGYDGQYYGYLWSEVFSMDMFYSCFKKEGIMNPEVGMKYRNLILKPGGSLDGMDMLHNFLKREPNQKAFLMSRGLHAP
UniProt Q8NCF5: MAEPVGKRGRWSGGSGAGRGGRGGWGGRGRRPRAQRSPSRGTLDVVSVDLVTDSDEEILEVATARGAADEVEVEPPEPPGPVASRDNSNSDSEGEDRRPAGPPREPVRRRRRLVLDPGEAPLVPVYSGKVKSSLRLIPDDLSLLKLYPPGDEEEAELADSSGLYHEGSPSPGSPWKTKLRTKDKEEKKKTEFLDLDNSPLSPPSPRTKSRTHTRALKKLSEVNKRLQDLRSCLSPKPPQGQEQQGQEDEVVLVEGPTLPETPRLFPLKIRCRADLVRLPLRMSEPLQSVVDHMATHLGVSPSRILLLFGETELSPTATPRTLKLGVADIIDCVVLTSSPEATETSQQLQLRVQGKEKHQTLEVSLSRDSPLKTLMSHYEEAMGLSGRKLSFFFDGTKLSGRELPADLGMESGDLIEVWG
UniProt Q96IV0: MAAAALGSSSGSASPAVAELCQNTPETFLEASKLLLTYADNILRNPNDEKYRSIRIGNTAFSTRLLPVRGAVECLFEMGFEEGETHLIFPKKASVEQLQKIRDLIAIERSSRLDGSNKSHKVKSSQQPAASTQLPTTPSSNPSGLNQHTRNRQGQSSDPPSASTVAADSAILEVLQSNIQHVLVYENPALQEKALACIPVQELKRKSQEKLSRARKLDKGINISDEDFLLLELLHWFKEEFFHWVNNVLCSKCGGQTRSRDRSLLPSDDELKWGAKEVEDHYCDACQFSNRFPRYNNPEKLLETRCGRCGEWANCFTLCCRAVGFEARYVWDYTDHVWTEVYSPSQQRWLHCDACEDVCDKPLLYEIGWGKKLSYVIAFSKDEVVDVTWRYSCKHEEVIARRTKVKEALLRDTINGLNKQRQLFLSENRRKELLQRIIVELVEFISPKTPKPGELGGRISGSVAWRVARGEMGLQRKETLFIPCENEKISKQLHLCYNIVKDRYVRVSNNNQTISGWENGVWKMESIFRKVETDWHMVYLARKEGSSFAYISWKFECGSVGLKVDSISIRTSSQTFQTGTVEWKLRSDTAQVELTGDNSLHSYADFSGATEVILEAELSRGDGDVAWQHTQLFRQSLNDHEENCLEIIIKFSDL
UniProt Q8WX92, whole entry, looked up: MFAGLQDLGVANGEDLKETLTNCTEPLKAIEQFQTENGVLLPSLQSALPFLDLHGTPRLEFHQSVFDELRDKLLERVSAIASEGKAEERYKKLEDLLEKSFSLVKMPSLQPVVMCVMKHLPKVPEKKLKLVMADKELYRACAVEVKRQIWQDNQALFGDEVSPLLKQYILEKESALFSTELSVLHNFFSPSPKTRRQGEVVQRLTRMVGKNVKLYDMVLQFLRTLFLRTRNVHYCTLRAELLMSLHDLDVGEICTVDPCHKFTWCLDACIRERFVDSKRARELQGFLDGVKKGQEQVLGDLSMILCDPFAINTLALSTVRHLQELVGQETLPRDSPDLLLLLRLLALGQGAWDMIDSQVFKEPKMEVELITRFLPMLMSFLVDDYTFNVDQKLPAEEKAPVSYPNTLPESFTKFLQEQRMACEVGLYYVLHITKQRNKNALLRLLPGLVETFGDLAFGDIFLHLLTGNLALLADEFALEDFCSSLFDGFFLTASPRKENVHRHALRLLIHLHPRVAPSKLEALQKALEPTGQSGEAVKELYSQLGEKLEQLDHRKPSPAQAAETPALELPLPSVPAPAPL
UniProt O43676, whole entry, looked up: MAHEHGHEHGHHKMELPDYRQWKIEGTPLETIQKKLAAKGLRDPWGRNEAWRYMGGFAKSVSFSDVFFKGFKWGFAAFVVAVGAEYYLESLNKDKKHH
UniProt Q9NXR1: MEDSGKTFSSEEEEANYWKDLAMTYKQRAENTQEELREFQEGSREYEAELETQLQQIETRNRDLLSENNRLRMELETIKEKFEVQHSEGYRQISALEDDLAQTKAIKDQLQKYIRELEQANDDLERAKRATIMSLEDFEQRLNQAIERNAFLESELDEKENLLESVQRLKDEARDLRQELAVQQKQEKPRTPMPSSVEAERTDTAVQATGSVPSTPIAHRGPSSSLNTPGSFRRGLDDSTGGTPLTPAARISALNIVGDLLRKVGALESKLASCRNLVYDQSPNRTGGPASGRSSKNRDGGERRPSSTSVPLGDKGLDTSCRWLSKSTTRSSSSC
UniProt O95168, whole entry, looked up: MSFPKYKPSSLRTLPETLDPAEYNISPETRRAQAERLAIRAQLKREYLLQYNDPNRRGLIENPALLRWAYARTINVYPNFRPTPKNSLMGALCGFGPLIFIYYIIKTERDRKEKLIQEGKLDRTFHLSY
UniProt Q8NBF2: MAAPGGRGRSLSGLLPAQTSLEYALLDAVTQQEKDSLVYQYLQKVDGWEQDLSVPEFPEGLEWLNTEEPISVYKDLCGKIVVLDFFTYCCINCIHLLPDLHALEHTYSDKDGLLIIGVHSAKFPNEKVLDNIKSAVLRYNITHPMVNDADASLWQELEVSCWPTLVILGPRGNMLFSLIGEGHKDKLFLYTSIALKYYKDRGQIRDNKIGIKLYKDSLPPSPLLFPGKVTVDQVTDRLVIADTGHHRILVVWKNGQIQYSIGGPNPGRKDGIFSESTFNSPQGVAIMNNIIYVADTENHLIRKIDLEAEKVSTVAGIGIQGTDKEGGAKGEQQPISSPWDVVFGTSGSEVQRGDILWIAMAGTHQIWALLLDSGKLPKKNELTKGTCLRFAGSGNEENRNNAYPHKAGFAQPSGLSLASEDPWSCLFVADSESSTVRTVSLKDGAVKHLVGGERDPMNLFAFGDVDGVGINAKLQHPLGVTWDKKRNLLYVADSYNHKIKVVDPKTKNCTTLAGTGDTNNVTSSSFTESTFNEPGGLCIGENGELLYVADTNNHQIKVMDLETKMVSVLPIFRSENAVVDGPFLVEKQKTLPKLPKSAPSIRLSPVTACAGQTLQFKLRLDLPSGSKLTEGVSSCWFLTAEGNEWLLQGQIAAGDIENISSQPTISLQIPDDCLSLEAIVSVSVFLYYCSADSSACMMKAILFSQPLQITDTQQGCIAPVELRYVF

What was measured:
Assay in all cases: log2 fold change, soluble protein after heating vs DMSO (PISA); higher = thermal stabilisation; K562 lysate, 10 uM; active = over 0.2 and 3.5 SD of the protein, either way, in both replicates (recomputed)
vemurafenib = compound: CCCS(=O)(=O)Nc1ccc(F)c(C(=O)c2c[nH]c3ncc(-c4ccc(Cl)cc4)cc23)c1F [vemurafenib]
Method in brief: (§1)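 Thermal stability, expressed as log-two fold change relative to solvent controls, is given from duplicates. Crude K562 extract in PBS pH 7.4 with 1 mM MgCl2, at 1 mg/mL protein, was treated with 10 μM compound for 30 min and heated in aliquots for 3 min across 48°C-58°C. After pooling, adjustment to 0.5% NP-40 at 4°C and centrifugation at 21,000xg for 90 min, supernatant protein was measured by TMTpro 16plex LC-MS/MS with channel sums equalised.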

[1] = compound: CCCS(=O)(=O)Nc1ccc(F)c(C(=O)c2c[nH]c3ncc(Cl)cc23)c1F
Method in brief: as §1

barasertib = compound: CCN(CCCOc1ccc2c(Nc3cc(CC(=O)Nc4cccc(F)c4)[nH]n3)ncnc2c1)CCOP(=O)(O)O [barasertib]
Method in brief: as §1

[2] = compound: CC[C@@H]1C(=O)N(C)c2cnc(Nc3ccc(C(=O)NC4CCN(C)CC4)cc3OC)nc2N1C1CCCC1
Method in brief: as §1

volasertib = compound: CC[C@@H]1C(=O)N(C)c2cnc(Nc3ccc(C(=O)N[C@H]4CC[C@H](N5CCN(CC6CC6)CC5)CC4)cc3OC)nc2N1C(C)C [volasertib]
Method in brief: as §1

[3] = compound: CCn1c(C(=O)N(C2CC2)C2CC2)cc2c3c(ncn3C)c(Nc3cc(C)n(C)n3)nc21
Method in brief: as §1

[4] = compound: CCn1cc(-c2ccnc3[nH]c(-c4cccc(CN(C)C)c4)cc23)c(-c2ccc(NC(=O)N(C)C)cc2)n1
Method in brief: as §1

[5] = compound: CN1CCC(CNc2ccc3ncc(-c4cccc(OC(F)(F)F)c4)n3n2)CC1
Method in brief: as §1

saracatinib = compound: CN1CCN(CCOc2cc(OC3CCOCC3)c3c(Nc4c(Cl)ccc5c4OCO5)ncnc3c2)CC1 [saracatinib]
Method in brief: as §1

sotrastaurin = compound: CN1CCN(c2nc(C3=C(c4c[nH]c5ccccc45)C(=O)NC3=O)c3ccccc3n2)CC1 [sotrastaurin]
Method in brief: as §1

Measured: log2 fold change

NF2 (UniProt P35240)
inactive: vemurafenib 0.016 | [1] 0.022 | barasertib -0.001 | [2] 0.103 | volasertib 0.016 | [3] -0.06 | [4] -0.1 | [5] 0.065 | saracatinib 0.003 | sotrastaurin 0.011

NKAP (UniProt Q8N5F7)
inactive: vemurafenib 0.113 | [1] -0.093 | barasertib -0.045 | [2] 0.063 | volasertib -0.006 | [3] -0.001 | [4] 0.072 | [5] -0.02 | saracatinib 0.049 | sotrastaurin 0.015

NFYB (UniProt P25208)
inactive: vemurafenib 0.219 | [1] 0.013 | barasertib 0.048 | [2] 0.09 | volasertib -0.031 | [3] -0.038 | [4] -0.085 | [5] -0.02 | saracatinib -0.012 | sotrastaurin 0.01

NDUFB6 (UniProt O95139)
inactive: vemurafenib 0.041 | [1] 0.002 | barasertib -0.003 | [2] 0.057 | volasertib 0.014 | [3] -0.04 | [4] -0.147 | [5] 0.101 | saracatinib 0.012 | sotrastaurin 0.041

NFXL1 (UniProt Q6ZNB6)
inactive: vemurafenib 0.015 | [1] -0.007 | barasertib -0.108 | [2] 0.064 | volasertib -0.076 | [3] -0.029 | [4] -0.008 | [5] 0.132 | saracatinib -0.04 | sotrastaurin -0.145

NEDD1 isoform 3 (UniProt Q8NHV4)
inactive: vemurafenib -0.02 | [1] 0.008 | barasertib 0.038 | [2] 0.071 | volasertib -0.002 | [3] 0.01 | [4] 0.02 | [5] 0.012 | saracatinib 0.051 | sotrastaurin 0.03

NDUFAF1 (UniProt Q9Y375)
inactive: vemurafenib -0.004 | [1] 0.041 | barasertib -0.003 | [2] 0.072 | volasertib 0.009 | [3] -0.007 | [4] -0.083 | [5] 0.014 | saracatinib -0.008 | sotrastaurin 0.039

NDUFA13 (UniProt Q9P0J0)
inactive: vemurafenib 0.004 | [1] 0.014 | barasertib 0.075 | [2] 0.015 | volasertib 0.014 | [3] -0.013 | [4] 0.005 | [5] -0.008 | saracatinib 0.003 | sotrastaurin -0.013

Quoted from the listing (two entries):
NEDD1 isoform 3 (UniProt Q8NHV4)
inactive: vemurafenib -0.02 | [1] 0.008 | barasertib 0.038 | [2] 0.071 | volasertib -0.002 | [3] 0.01 | [4] 0.02 | [5] 0.012 | saracatinib 0.051 | sotrastaurin 0.03

NDUFAF1 (UniProt Q9Y375)
inactive: vemurafenib -0.004 | [1] 0.041 | barasertib -0.003 | [2] 0.072 | volasertib 0.009 | [3] -0.007 | [4] -0.083 | [5] 0.014 | saracatinib -0.008 | sotrastaurin 0.039

(cont.)

NIP7 (UniProt Q9Y221)
inactive: vemurafenib -0.053 | [1] 0.045 | barasertib -0.061 | [2] 0.014 | volasertib -0.063 | [3] 0.06 | [4] -0.1 | [5] 0.044 | saracatinib 0.021 | sotrastaurin 0.012

NDUFA11 (UniProt Q86Y39)
inactive: vemurafenib -0.067 | [1] 0.014 | barasertib 0.014 | [2] -0.076 | volasertib 0.042 | [3] 0.051 | [4] -0.021 | [5] 0.161 | saracatinib 0.014 | sotrastaurin 0.014

NDUFA6 (UniProt P56556)
inactive: vemurafenib 0.065 | [1] 0.004 | barasertib 0.045 | [2] -0.064 | volasertib 0.063 | [3] -0.015 | [4] -0.103 | [5] -0.123 | saracatinib 0.019 | sotrastaurin 0.191

NEFH (UniProt P12036)
inactive: vemurafenib 0.021 | [1] -0.004 | barasertib -0.057 | [2] 0.051 | volasertib 0.053 | [3] -0.018 | [4] -0.018 | [5] -0.025 | saracatinib 0.039 | sotrastaurin -0.022

NHP2 (UniProt Q9NX24)
inactive: vemurafenib -0.018 | [1] 0.037 | barasertib -0.022 | [2] 0.112 | volasertib 0.003 | [3] 0.013 | [4] -0.256 | [5] 0.07 | saracatinib -0.009 | sotrastaurin -0.001

NIT2 (UniProt Q9NQR4)
inactive: vemurafenib -0.003 | [1] 0.005 | barasertib -0.008 | [2] 0.005 | volasertib -0.004 | [3] -0.004 | [4] 0.02 | [5] -0.013 | saracatinib -0.008 | sotrastaurin -0.012

NENF (UniProt Q9UMX5)
inactive: vemurafenib -0.017 | [1] -0.018 | barasertib 0.183 | [2] 0.024 | volasertib 0.039 | [3] -0.034 | [4] 0.048 | [5] -0.048 | saracatinib 0.027 | sotrastaurin 0.015

NDRG3 (UniProt Q9UGV2)
inactive: vemurafenib -0.006 | [1] 0.005 | barasertib 0.011 | [2] 0.003 | volasertib 0.011 | [3] 0.006 | [4] 0.049 | [5] -0.052 | saracatinib -0.024 | sotrastaurin 0.003

NEDD4 isoform 4 (UniProt P46934)
inactive: vemurafenib 0.042 | [1] 0.017 | barasertib 0.027 | [2] -0.02 | volasertib -0.019 | [3] 0.001 | [4] -0.059 | [5] 0.009 | saracatinib -0.006 | sotrastaurin -0.009

NLN (UniProt Q9BYT8)
inactive: vemurafenib 0.024 | [1] -0.005 | barasertib 0.038 | [2] 0.009 | volasertib 0.02 | [3] -0.009 | [4] 0.078 | [5] -0.141 | saracatinib -0.009 | sotrastaurin 0.002

NFATC2IP (UniProt Q8NCF5)
inactive: vemurafenib -0.024 | [1] 0.069 | barasertib 0.041 | [2] 0.033 | volasertib 0.006 | [3] 0 | [4] 0.076 | [5] -0.031 | saracatinib 0.003 | sotrastaurin -0.004

NGLY1 (UniProt Q96IV0)
inactive: vemurafenib 0.015 | [1] 0.01 | barasertib 0.043 | [2] -0.102 | volasertib -0.034 | [3] 0.002 | [4] 0.09 | [5] -0.02 | saracatinib 0.013 | sotrastaurin 0.024

NELFB isoform 2 (UniProt Q8WX92)
inactive: vemurafenib 0.01 | [1] -0.007 | barasertib -0.007 | [2] 0.021 | volasertib -0.018 | [3] 0.026 | [4] -0.01 | [5] -0.046 | saracatinib 0.025 | sotrastaurin -0.017

NDUFS3 (UniProt O75489)
inactive: vemurafenib -0.038 | [1] 0.014 | barasertib -0.003 | [2] 0.025 | volasertib 0.014 | [3] 0.026 | [4] 0.039 | [5] -0.07 | saracatinib -0.001 | sotrastaurin -0.017

NDUFB3 (UniProt O43676)
inactive: vemurafenib 0.001 | [1] -0.008 | barasertib -0.015 | [2] -0.026 | volasertib 0.026 | [3] 0.072 | [4] -0.014 | [5] 0.012 | saracatinib 0.002 | sotrastaurin 0.004

NDE1 isoform 1 (UniProt Q9NXR1)
inactive: vemurafenib 0.054 | [1] 0.015 | barasertib 0.001 | [2] -0.007 | volasertib 0.035 | [3] 0.067 | [4] -0.085 | [5] 0.071 | saracatinib 0.059 | sotrastaurin 0.057

NFE2 (UniProt Q16621)
inactive: vemurafenib -0.004 | [1] 0.024 | barasertib 0.03 | [2] -0.004 | volasertib -0.025 | [3] -0.024 | [4] -0.031 | [5] -0.015 | saracatinib 0.01 | sotrastaurin -0.058

NDUFS5 (UniProt O43920)
inactive: vemurafenib 0.002 | [1] 0.035 | barasertib -0.061 | [2] 0.019 | volasertib -0.005 | [3] -0.023 | [4] 0.016 | [5] -0.038 | saracatinib 0.018 | sotrastaurin -0.027

NDUFB4 (UniProt O95168)
inactive: vemurafenib -0.045 | [1] 0.022 | barasertib -0.18 | [2] 0.073 | volasertib -0.026 | [3] -0.006 | [4] 0.218 | [5] -0.228 | saracatinib 0.028 | sotrastaurin 0.003

NIF3L1 (UniProt Q9GZT8)
inactive: vemurafenib 0.001 | [1] -0.003 | barasertib -0.016 | [2] 0.047 | volasertib 0.029 | [3] -0.046 | [4] -0.048 | [5] 0.069 | saracatinib 0.016 | sotrastaurin -0.016

NEMF (UniProt O60524)
inactive: vemurafenib -0.03 | [1] 0.019 | barasertib -0.008 | [2] -0.012 | volasertib -0.008 | [3] 0.017 | [4] 0.059 | [5] -0.036 | saracatinib 0.017 | sotrastaurin 0.002

NHLRC2 (UniProt Q8NBF2)
inactive: vemurafenib 0.026 | [1] 0.015 | barasertib 0.002 | [2] -0.07 | volasertib -0.045 | [3] 0.002 | [4] -0.027 | [5] 0.06 | saracatinib -0.001 | sotrastaurin 0.001
